The numbers were not newly measured in PMC9293725 (Computational and Structural Biotechnology Journal, 2022), which cites them from elsewhere.

One may read the EC50 as the concentration giving half of the maximal effect.

The series has as its system P. falciparum W2 strain. Conditions: read-out: EC50 P. falciparum W2 strain; cited from earlier work.

With `C[S+]([O-])c1ccc(-c2nc(-c3ccncc3)c(-c3ccc(F)cc3)[nH]2)cc1` (stereo not shown) [SB203580], the EC50 is 12 nM.
